Drawing on US20110177063A1, this text covers binding for four molecules.

These are yes or no findings as the source states them, for the method shown. Some entries that bind do so weakly or less than the wild type.

The target of assay [1] is T1, mature human progastrin (human) (UniProt P01350).
T1 sequence: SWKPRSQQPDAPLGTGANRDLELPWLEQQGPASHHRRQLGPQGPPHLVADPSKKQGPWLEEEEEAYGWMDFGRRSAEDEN
Nature of the assay: stated in Example 6, assay not named.

Assay [2] has as its target T1, mature human progastrin (human). Nature of the assay: stated in Example 15, assay not named.
Assay [3] shares this target. Kind of assay: specificity, assay not named.

B1: Anti-hPG MAb 8 (antibody, V domains shown)
VH: EVQLVESGGGLVKPGGSLKLSCAASGFTFTTYAMSWVRQTPEKRLEWVATISSGGTYTYYPDSVKGRFTISRDNAKNALYLQMSSLRSEDTAMYYCATQGNYSLDFWGQGTSLTVSS
VL: DIVMTQAASSNPVTLGTSASISCRSSKSLRHTKGITFLYWYLQKPGQSPQLLIYQMSNLASGVPDRFSSSGSGTDFTLRISRVEAEDLGVYYCAQNLELPLTFGAGTKLELK
For B1, the binding entry in assay [1], in assay [2] and in assay [3] was “binds” each time.

B2: Anti-hPG MAb 4 (antibody, V domains shown)
VH: QVQLQQSGAELMKPGASVKISCKATGYTFSSSWIEWLKQRPGHGLEWIGEFLPGSGSTDYNEKFKGKATFTADTSSDTAYMLLSSLTSEDSAVYYCATDGNYDWFAYWGQGTLVTVSA
VL: DLVMTQTPLSLPVSLGDQASISCRSSQSLVHSSGVTYLHWYLQKPGQSPKLLIYKVSNRFSGVPDRFSGSGSGTDFTLKISRVEAEDLGVYFCSQSTHVPPTFGSGTKLEIK
Consider B2, for which, in assay [3], the binding result is listed as “binds”.

B3: Anti-hPG MAb 19 (antibody, V domains shown)
VH: DVQLQESGPGLVKPSQSLSLTCTVTGYSITSDYAWNWIRQFPGNKLEWMGYISFSGYTSYNPSLKSRISVTRDTSRNQFFLQLTSVTTEDTATYYCAREVNYGDSYHFDYWGQGTIVTVSS
VL: QLALTQSSSASFSLGASAKLTCTLSSQHRTYTIEWYQQQSLKPPKYVMEVKKDGSHSTGHGIPDRFSGSSSGADRYLSISNIQPEDEAIYICGVGDAIKGQSVFVFGGGTKVTVL
With B3, the binding result in assay [1] and in assay [3] was “binds” in each case.

B4: Anti-hPG MAb 3 (antibody, V domains shown)
VH: EVQLQQSGTVLARPGASVKMSCKASGYIFTSYWVHWVKQRPGQGLEWIGGFYPGNSDSRYNQKFKGKATLTAVTSASTAYMDLSSLTNEDSAVYFCTRRDSPQYWGQGTTLTVSS
VL: DVLMTQTPLSLPVSLGDQASISCRSSQSIVHSNGNTYLEWYLQKPGQSPKLLIYKVSNRFSGVPDRFSGSGSGTDFTLKISRLEAEDLGVYYCFQGSHVPFTFGGGTKLEIK
As to B4, in assay [3], the binding entry is “binds”.
